Results from article doi:10.1101/2020.03.05.978999.
Results are given in words; binding and its absence hold for the method and conditions named. In cells and extracts the contact can be indirect. Some binding calls cover weakened binding; strength is not graded here. Where a sequence is shown, tags or fusion partners need not be part of it.

T1: ROS1-nYFP (Arabidopsis thaliana) (UniProt Q9SJQ6)
T1 sequence: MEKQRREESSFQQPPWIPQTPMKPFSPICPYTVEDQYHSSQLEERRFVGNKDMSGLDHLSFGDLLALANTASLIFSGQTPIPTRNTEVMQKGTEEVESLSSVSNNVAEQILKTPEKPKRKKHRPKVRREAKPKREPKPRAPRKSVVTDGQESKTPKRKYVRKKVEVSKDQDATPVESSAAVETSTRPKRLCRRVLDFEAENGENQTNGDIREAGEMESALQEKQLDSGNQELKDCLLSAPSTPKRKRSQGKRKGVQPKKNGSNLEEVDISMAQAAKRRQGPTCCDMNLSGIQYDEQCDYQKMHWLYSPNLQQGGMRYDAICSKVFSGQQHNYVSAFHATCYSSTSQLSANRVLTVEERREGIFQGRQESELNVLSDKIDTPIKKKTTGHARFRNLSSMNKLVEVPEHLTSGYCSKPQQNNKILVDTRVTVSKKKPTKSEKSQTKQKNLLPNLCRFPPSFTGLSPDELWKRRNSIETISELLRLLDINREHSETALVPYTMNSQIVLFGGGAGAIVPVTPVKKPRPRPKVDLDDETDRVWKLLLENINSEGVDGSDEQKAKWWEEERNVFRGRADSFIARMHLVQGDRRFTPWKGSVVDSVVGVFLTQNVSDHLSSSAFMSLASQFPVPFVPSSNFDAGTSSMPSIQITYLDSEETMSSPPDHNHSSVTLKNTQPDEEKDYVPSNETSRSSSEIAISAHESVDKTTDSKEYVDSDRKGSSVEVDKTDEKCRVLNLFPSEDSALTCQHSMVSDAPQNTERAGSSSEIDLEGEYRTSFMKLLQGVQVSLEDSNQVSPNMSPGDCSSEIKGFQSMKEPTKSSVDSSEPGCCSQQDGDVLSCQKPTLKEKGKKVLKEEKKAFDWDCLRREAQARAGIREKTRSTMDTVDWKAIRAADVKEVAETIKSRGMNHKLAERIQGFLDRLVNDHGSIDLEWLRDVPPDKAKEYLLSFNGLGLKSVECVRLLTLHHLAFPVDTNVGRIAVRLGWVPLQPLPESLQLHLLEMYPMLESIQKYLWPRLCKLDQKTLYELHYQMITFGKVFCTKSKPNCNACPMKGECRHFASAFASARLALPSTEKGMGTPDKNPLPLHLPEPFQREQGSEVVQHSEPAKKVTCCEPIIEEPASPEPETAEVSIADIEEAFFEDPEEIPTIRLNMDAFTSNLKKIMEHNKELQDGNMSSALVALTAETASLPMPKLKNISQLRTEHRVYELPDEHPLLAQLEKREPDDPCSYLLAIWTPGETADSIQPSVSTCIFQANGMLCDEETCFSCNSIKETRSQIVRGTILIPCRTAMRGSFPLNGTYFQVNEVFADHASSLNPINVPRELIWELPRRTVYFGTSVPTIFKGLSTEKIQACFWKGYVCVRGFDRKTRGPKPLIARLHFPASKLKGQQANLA

T2: ROS1-Flag (Arabidopsis thaliana) (UniProt Q9SJQ6)
T2 sequence: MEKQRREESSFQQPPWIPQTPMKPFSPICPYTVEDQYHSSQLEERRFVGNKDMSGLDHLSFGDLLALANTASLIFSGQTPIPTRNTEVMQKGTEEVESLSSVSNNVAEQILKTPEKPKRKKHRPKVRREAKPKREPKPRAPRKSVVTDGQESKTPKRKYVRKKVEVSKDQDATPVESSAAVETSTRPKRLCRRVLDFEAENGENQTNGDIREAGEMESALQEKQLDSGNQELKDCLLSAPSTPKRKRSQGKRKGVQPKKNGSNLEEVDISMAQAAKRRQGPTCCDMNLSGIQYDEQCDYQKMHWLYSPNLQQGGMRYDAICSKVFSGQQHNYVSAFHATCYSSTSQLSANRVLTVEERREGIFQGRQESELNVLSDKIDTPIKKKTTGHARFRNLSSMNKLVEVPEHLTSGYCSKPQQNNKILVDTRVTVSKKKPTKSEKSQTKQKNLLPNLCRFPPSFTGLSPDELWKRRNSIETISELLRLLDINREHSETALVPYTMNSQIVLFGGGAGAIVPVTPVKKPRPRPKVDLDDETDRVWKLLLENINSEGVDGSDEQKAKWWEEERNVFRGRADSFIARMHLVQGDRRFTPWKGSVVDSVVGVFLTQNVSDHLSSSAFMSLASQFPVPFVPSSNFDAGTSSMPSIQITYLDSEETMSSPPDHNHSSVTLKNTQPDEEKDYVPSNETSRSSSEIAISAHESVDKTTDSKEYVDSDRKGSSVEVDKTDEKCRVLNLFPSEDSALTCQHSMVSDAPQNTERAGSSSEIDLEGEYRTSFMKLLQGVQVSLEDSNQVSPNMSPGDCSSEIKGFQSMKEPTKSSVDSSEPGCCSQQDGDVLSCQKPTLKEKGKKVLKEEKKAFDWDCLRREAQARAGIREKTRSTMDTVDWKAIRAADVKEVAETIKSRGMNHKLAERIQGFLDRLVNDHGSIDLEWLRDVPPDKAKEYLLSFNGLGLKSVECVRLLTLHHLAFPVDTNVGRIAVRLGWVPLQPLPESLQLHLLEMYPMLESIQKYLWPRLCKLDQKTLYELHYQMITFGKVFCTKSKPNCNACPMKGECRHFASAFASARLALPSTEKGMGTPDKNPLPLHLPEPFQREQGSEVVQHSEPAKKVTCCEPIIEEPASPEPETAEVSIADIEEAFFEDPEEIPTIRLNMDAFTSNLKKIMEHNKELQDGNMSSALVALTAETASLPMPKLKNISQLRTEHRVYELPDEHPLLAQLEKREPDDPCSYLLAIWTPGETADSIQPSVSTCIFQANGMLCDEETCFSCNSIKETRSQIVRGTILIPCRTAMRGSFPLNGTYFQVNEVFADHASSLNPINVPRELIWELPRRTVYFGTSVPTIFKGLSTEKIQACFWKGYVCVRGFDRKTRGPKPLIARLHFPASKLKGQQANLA


Tests used:
[1] = target: T1, ROS1-nYFP (Arabidopsis thaliana); test: split reporter
[2] = target: T2, ROS1-Flag (Arabidopsis thaliana); test: co-IP

Binder | binding [1] | binding [2]
SIZ1-cYFP (protein, UniProt Q680Q4 1-884) MDLEANCKEKLSYFRIKELKDVLTQLGLSKQGKKQELVDRILTLLSDEQAARLLSKKNTVAKEAVAKLVDDTYRKMQVSGASDLASKGQVSSDTSNLKVKGEPEDPFQPEIKVRCVCGNSLETDSMIQCEDPRCHVWQHVGCVILPDKPMDGNPPLPESFYCEICRLTRADPFWVTVAHPLSPVRLTATTIPNDGASTMQSVERTFQITRADKDLLAKPEYDVQAWCMLLNDKVLFRMQWPQYADLQVNGVPVRAINRPGGQLLGVNGRDDGPIITSCIRDGVNRISLSGGDVRIFCFGVRLVKRRTLQQVLNLIPEEGKGETFEDALARVRRCIGGGGGDDNADSDSDIEVVADFFGVNLRCPMSGSRIKVAGRFLPCVHMGCFDLDVFVELNQRSRKWQCPICLKNYSVEHVIVDPYFNRITSKMKHCDEEVTEIEVKPDGSWRVKFKRESERRELGELSQWHAPDGSLCPSAVDIKRKMEMLPVKQEGYSDGPAPLKLGIRKNRNGIWEVSKPNTNGLSSSNRQEKVGYQEKNIIPMSSSATGSGRDGDDASVNQDAIGTFDFVANGMELDSISMNVDSGYNFPDRNQSGEGGNNEVIVLSDSDDENDLVITPGPAYSGCQTDGGLTFPLNPPGIINSYNEDPHSIAGGSSGLGLFNDDDEFDTPLWSFPSETPEAPGFQLFRSDADVSGGLVGLHHHSPLNCSPEINGGYTMAPETSMASVPVVPGSTGRSEANDGLVDNPLAFGRDDPSLQIFLPTKPDASAQSGFKNQADMSNGLRSEDWISLRLGDSASGNHGDPATTNGINSSHQMSTREGSMDTTTETASLLLGMNDSRQDKAKKQRSDNPFSFPRQKRSNNEQDHQTRHRSLNKICIILCAGKN | binds | 
HA-SIZ1 (protein, UniProt Q680Q4 1-884) MDLEANCKEKLSYFRIKELKDVLTQLGLSKQGKKQELVDRILTLLSDEQAARLLSKKNTVAKEAVAKLVDDTYRKMQVSGASDLASKGQVSSDTSNLKVKGEPEDPFQPEIKVRCVCGNSLETDSMIQCEDPRCHVWQHVGCVILPDKPMDGNPPLPESFYCEICRLTRADPFWVTVAHPLSPVRLTATTIPNDGASTMQSVERTFQITRADKDLLAKPEYDVQAWCMLLNDKVLFRMQWPQYADLQVNGVPVRAINRPGGQLLGVNGRDDGPIITSCIRDGVNRISLSGGDVRIFCFGVRLVKRRTLQQVLNLIPEEGKGETFEDALARVRRCIGGGGGDDNADSDSDIEVVADFFGVNLRCPMSGSRIKVAGRFLPCVHMGCFDLDVFVELNQRSRKWQCPICLKNYSVEHVIVDPYFNRITSKMKHCDEEVTEIEVKPDGSWRVKFKRESERRELGELSQWHAPDGSLCPSAVDIKRKMEMLPVKQEGYSDGPAPLKLGIRKNRNGIWEVSKPNTNGLSSSNRQEKVGYQEKNIIPMSSSATGSGRDGDDASVNQDAIGTFDFVANGMELDSISMNVDSGYNFPDRNQSGEGGNNEVIVLSDSDDENDLVITPGPAYSGCQTDGGLTFPLNPPGIINSYNEDPHSIAGGSSGLGLFNDDDEFDTPLWSFPSETPEAPGFQLFRSDADVSGGLVGLHHHSPLNCSPEINGGYTMAPETSMASVPVVPGSTGRSEANDGLVDNPLAFGRDDPSLQIFLPTKPDASAQSGFKNQADMSNGLRSEDWISLRLGDSASGNHGDPATTNGINSSHQMSTREGSMDTTTETASLLLGMNDSRQDKAKKQRSDNPFSFPRQKRSNNEQDHQTRHRSLNKICIILCAGKN |  | binds
